Binding data for 6 molecules are collected here from publication PMC4698733.

Chains of the proteins cited; added tags and fusions are not shown.
UniProt Q9DAK2: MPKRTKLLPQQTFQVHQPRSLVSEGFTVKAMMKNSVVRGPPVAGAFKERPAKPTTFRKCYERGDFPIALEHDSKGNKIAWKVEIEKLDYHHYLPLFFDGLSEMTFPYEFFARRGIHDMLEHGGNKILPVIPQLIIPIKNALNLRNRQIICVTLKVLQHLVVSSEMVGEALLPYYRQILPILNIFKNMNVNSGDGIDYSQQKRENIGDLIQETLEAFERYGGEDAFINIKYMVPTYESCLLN

Numbering of substitutions follows the chain as printed. Numbers in names are those of the source. Results are given in words; binding and its absence hold for the method and conditions named. Some results given as binding are weak or reduced against the parent protein; the word gives no strength.

In test [1] the target is PACRG with hexahistidine tag, co-expressed with MEIG1 from PACRG/MEIG1/pCDFDuet-1 (mouse) (UniProt Q9DAK2). Description: SEC; His-tagged PACRG and MEIG1 co-expressed in E. coli Rosetta II (DE3) from the dual plasmid; Nickel affinity, then Superdex 75 26/60 gel filtration twice; fractions analysed by Western blot.
For test [2], the target named is MEIG1 K57E, purified (mouse) (UniProt Q61845). Nature of the test: SEC; mutant MEIG1 proteins that affect binding to PACRG; elution profiles compared with wild type (Supplemental Fig. 3C); both purified.
Test [3] concerns the target MEIG1 W50A, purified (mouse) (UniProt Q61845). The description is as above.
Test [4] deals with MEIG1 F66A, purified (mouse) (UniProt Q61845). Described as above.
Test [5] has as its target MEIG1 Y68A, purified (mouse) (UniProt Q61845). The test is described as above.
For test [6], the target named is Mouse meiosis expressed gene 1 protein (MEIG1), wild type, purified (mouse) (UniProt Q61845). Nature of the test: NMR linewidths (2D 15N-HSQC); purified labelled MEIG1, 0.5-1.0 mM, 10 mM NaPO4 pH 6.5, 1 mM dithiothreitol; narrow, sharp and well dispersed resonances; both purified.
The target is the same in test [7]. Nature of the test: SEC; purified MEIG1 on a Superdex 75 26/60 gel filtration column (GE Healthcare); single peak at 233 mL, apparent molecular weight ~9 kDa against expected 11 kDa; both purified.

B1: MEIG1 wild type, co-expressed with PACRG from PACRG/MEIG1/pCDFDuet-1 (protein, UniProt Q61845 1-88)
chain: MATSDVKPKSISRAKKWSEEIENLYRFQQAGYRDEIEYKQVKQVAMVDRWPETGYVKKLQRRDNTFFYYNKERECEDKEVHKVKVYVY
For B1, the binding entry in test [1] is “binds”.

B2: MEIG1 K57E, purified (protein, UniProt Q61845 1-88)
chain: B1 chain with K57E
On to B2, for which the binding entry in test [2] is “no binding”.

B3: MEIG1 W50A, purified (protein, UniProt Q61845 1-88)
chain: B1 chain with W50A
For B3, in test [3], the binding result is “no binding”.

B4: MEIG1 F66A, purified (protein, UniProt Q61845 1-88)
chain: B1 chain with F66A
Take B4: in test [4], the binding result is listed as “no binding”.

B5: MEIG1 Y68A, purified (protein, UniProt Q61845 1-88)
chain: B1 chain with Y68A
On to B5, for which, in test [5], the binding result is recorded as “no binding”.

B6: Mouse meiosis expressed gene 1 protein (MEIG1), wild type, purified (protein, UniProt Q61845 1-88)
chain: B1 chain
Turning to B6, the binding result is “no binding (tested: 0.5–1.0 mM)” in test [6] and “no binding” in test [7].
